Earlier results in article PMC4407688 (Drug metabolism and drug interactions, 2014).

Conditions: coadministration together with CsA; ref [16], [34], [35]; cited from earlier work

CC(C)c1c(C(=O)Nc2ccccc2)c(-c2ccccc2)c(-c2ccc(F)cc2)n1CC[C@@H](O)C[C@@H](O)CC(=O)O [atorvastatin]
Increased AUC of statin: 8.69 fold
